Measured values as given in PubChem BioAssay AID1489 (National Center for Advancing Translational Sciences (NCATS), 2009).
The inconclusive results got no clear call from the source; some entries with a clear call stand among them for comparison. Where the call is inconclusive, the potency comes from a doubtful curve fit. Activity calls are given as the source filed them. Calls follow the shape of the dose curve; as a rule, active = well fitted antagonist curve with a large enough effect in the main read-out, with a control signal flat; inconclusive = small, poorly fitted or top-dose-only effect; inactive = no such curve, though single readings can be large or run the other way.

Sequences of proteins named here, by UniProt entry; tags and fusion partners are left off. A change or cut given only in a name is not applied to a line headed by its entry.
UniProt Q6W5P4: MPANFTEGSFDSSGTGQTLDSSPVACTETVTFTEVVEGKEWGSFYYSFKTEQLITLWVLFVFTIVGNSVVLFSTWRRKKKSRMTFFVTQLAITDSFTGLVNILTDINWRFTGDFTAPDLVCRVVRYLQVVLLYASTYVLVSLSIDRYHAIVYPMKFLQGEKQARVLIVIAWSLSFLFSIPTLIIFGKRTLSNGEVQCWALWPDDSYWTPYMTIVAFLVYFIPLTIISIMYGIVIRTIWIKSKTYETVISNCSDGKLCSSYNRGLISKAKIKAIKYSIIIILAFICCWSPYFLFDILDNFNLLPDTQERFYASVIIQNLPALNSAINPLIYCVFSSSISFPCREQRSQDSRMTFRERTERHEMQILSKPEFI

molecular target: Neuropeptide S receptor (Homo sapiens) (UniProt Q6W5P4); assay: Confirmation Concentration-Response Assay for Antagonists of the Neuropeptide S Receptor: Calcium Signal Transduction; conditions: CHO-NPSR cells, NPS-induced calcium flux, FDSS; activity change, negative = inhibition: at 19.3 µM (top of the series)
Outline: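 CHO cells stably expressing human NPSR, loaded with calcium dye; compounds added, then stimulated with NPS (60 nM in stimulation reagent). Fluorescence (Ex 480, Em 520–560 nm) recorded kinetically on FDSS; AC50 from Hill fit.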

Potency, active:
CCOC(=O)c1cnc(-n2nc(C)cc2C)nc1NC1CCCC1 2.82 µM

Potency, inconclusive:
O=C(/C=C/c1ccco1)NC(=S)Nc1cccc(-c2nc3ccccc3o2)c1 12.6 µM [antagonist, partial curve, poor fit]
CCOC(=O)c1cnc2ccc(C)cc2c1Nc1ccc(N2CCOCC2)cc1 14.1 µM [antagonist, partial curve, poor fit]
CCOC(=O)c1c(NC(=O)CSc2nnc(-c3ccccc3)n2CC)sc(C(C)=O)c1C 14.1 µM [antagonist, partial curve, poor fit]
CCO[C@@H]1OC(C(=O)NCc2nc3ccccc3[nH]2)=C[C@H](c2ccc(C(F)(F)F)cc2)[C@H]1CCCO 7.94 µM [antagonist, single point]
CC(C)(C)C1C/C(=C/c2ccccn2)C(=O)/C(=C/c2ccccn2)C1 (configuration not stated) 0.0141 µM [antagonist, full curve, poor fit]
CC1(C)Cc2nc3sc4c(SCC(=O)NC(c5ccccc5)c5ccccc5)ncnc4c3cc2CO1 0.141 µM [antagonist, full curve, poor fit]
O=C(/C=C/c1ccco1)NC(=S)Nc1nc(-c2ccc(Cl)cc2)cs1 7.08 µM [antagonist, partial curve, poor fit]
CC1=C/C(=N\NC(=S)Nc2cccnc2)CC(C)(C)C1 4.47 µM [antagonist, partial curve]
Cc1ccc(C)c(CSc2nnc(-c3cccs3)n2Cc2ccco2)c1 7.94 µM [falling, partial curve]
Cc1ccc(-c2nnn(CC(=O)Nc3ccccc3-c3ccccc3)n2)c(-n2cnnn2)c1 14.1 µM [antagonist, partial curve, poor fit]
c1ccc(N2CCN(Cc3ccnc4ccccc34)CC2)cc1 15.8 µM [antagonist, partial curve, poor fit]
Cc1ccc(C2CC(C(F)F)n3ncc(C(=O)Nc4c(C)nn(Cc5c(F)cccc5Cl)c4C)c3N2)cc1 (configuration not stated) 10 µM [antagonist, full curve, poor fit]
Cc1ccc2[nH]c(=O)c(CN(Cc3ccc4c(c3)OCO4)Cc3nnnn3C3CCCC3)cc2c1 7.08 µM [falling, partial curve, poor fit]
O=C(Nc1cc(=O)[nH]c2nc(-c3ccc(Cl)cc3)nn12)c1ccccc1 0.355 µM [antagonist, partial curve, poor fit]
COc1ccc(-c2nnc(SCC(=O)OC3CCCCC3)o2)cc1OC 6.31 µM [antagonist, partial curve, poor fit]

Activity change, negative = inhibition, inconclusive:
COc1ccc(-c2cc(C(F)(F)F)n3nc(C(=O)NCc4ccco4)c(Cl)c3n2)cc1 -13.8%

Activity change, negative = inhibition, inactive:
Cn1c(COc2ccccc2)nnc1SCc1cc(=O)[nH]c2ccccc12 -4.37%
O=C(O)CCCCCNc1nc(=S)[nH]c2ccccc12 -0.723%
CCc1ccc2oc(-c3cc(N)cc(C)c3O)nc2c1 12%
CN(C)c1ccc(N2CN=C3SCC(=O)N3C2)cc1 10.4%
O=C(O)c1cccc(Nc2ncnc3ccccc23)c1 -7.58%
Cc1cc(C)n(-c2nc(NC(C)C)nc(NC(C)C)n2)n1 29%
Cc1nn(C(=O)c2cccs2)c(N)c1-c1ccccc1 0.372%
c1cncc(-c2nc(-c3ccco3)cs2)c1 -10.1%
Cc1ccc(Nc2cc(C)nn2-c2nc(C)cc(C)n2)cc1 24.7%
O=C(c1ccccc1-c1nc2ccccc2[nH]1)N1CCCCC1 -21.1%
Cc1oc2c(c1C(=O)NCc1cccnc1)C(=O)c1ccccc1C2=O 16.4%
O=[N+]([O-])c1ccc(-c2nc(C(Cl)Cl)c3ccccc3n2)cc1 -23.4%
CC1(C)O[C@@H]2C[C@H]3[C@@H]4C[C@H](F)C5=CC(=O)CC[C@]5(C)[C@H]4[C@@H](O)C[C@]3(C)[C@]2(C(=O)CO)O1 34.2%
COC(=O)c1ccc(C(=O)OC)c(NC(=O)CSc2cccc[n+]2[O-])c1 17.1%
CCCN1C(=O)/C(=C\C=C2/C=CN(CC)c3ccccc32)SC1=S -24.1%

Pulled by compound from the entries so far (4):
Activity change, negative = inhibition, inactive:
O=C(c1ccccc1-c1nc2ccccc2[nH]1)N1CCCCC1 -21.1%
CC1(C)O[C@@H]2C[C@H]3[C@@H]4C[C@H](F)C5=CC(=O)CC[C@]5(C)[C@H]4[C@@H](O)C[C@]3(C)[C@]2(C(=O)CO)O1 34.2%
CCc1ccc2oc(-c3cc(N)cc(C)c3O)nc2c1 12%
CN(C)c1ccc(N2CN=C3SCC(=O)N3C2)cc1 10.4%
